Assay results taken from PMC7072421.
Results are given in words; binding and its absence hold for the method and conditions named. In cells and extracts the contact can be indirect. Some results given as binding are weak or reduced against the parent protein; the word gives no strength.

Amino acid sequences for entries named in this document (tags omitted).
UniProt P78527: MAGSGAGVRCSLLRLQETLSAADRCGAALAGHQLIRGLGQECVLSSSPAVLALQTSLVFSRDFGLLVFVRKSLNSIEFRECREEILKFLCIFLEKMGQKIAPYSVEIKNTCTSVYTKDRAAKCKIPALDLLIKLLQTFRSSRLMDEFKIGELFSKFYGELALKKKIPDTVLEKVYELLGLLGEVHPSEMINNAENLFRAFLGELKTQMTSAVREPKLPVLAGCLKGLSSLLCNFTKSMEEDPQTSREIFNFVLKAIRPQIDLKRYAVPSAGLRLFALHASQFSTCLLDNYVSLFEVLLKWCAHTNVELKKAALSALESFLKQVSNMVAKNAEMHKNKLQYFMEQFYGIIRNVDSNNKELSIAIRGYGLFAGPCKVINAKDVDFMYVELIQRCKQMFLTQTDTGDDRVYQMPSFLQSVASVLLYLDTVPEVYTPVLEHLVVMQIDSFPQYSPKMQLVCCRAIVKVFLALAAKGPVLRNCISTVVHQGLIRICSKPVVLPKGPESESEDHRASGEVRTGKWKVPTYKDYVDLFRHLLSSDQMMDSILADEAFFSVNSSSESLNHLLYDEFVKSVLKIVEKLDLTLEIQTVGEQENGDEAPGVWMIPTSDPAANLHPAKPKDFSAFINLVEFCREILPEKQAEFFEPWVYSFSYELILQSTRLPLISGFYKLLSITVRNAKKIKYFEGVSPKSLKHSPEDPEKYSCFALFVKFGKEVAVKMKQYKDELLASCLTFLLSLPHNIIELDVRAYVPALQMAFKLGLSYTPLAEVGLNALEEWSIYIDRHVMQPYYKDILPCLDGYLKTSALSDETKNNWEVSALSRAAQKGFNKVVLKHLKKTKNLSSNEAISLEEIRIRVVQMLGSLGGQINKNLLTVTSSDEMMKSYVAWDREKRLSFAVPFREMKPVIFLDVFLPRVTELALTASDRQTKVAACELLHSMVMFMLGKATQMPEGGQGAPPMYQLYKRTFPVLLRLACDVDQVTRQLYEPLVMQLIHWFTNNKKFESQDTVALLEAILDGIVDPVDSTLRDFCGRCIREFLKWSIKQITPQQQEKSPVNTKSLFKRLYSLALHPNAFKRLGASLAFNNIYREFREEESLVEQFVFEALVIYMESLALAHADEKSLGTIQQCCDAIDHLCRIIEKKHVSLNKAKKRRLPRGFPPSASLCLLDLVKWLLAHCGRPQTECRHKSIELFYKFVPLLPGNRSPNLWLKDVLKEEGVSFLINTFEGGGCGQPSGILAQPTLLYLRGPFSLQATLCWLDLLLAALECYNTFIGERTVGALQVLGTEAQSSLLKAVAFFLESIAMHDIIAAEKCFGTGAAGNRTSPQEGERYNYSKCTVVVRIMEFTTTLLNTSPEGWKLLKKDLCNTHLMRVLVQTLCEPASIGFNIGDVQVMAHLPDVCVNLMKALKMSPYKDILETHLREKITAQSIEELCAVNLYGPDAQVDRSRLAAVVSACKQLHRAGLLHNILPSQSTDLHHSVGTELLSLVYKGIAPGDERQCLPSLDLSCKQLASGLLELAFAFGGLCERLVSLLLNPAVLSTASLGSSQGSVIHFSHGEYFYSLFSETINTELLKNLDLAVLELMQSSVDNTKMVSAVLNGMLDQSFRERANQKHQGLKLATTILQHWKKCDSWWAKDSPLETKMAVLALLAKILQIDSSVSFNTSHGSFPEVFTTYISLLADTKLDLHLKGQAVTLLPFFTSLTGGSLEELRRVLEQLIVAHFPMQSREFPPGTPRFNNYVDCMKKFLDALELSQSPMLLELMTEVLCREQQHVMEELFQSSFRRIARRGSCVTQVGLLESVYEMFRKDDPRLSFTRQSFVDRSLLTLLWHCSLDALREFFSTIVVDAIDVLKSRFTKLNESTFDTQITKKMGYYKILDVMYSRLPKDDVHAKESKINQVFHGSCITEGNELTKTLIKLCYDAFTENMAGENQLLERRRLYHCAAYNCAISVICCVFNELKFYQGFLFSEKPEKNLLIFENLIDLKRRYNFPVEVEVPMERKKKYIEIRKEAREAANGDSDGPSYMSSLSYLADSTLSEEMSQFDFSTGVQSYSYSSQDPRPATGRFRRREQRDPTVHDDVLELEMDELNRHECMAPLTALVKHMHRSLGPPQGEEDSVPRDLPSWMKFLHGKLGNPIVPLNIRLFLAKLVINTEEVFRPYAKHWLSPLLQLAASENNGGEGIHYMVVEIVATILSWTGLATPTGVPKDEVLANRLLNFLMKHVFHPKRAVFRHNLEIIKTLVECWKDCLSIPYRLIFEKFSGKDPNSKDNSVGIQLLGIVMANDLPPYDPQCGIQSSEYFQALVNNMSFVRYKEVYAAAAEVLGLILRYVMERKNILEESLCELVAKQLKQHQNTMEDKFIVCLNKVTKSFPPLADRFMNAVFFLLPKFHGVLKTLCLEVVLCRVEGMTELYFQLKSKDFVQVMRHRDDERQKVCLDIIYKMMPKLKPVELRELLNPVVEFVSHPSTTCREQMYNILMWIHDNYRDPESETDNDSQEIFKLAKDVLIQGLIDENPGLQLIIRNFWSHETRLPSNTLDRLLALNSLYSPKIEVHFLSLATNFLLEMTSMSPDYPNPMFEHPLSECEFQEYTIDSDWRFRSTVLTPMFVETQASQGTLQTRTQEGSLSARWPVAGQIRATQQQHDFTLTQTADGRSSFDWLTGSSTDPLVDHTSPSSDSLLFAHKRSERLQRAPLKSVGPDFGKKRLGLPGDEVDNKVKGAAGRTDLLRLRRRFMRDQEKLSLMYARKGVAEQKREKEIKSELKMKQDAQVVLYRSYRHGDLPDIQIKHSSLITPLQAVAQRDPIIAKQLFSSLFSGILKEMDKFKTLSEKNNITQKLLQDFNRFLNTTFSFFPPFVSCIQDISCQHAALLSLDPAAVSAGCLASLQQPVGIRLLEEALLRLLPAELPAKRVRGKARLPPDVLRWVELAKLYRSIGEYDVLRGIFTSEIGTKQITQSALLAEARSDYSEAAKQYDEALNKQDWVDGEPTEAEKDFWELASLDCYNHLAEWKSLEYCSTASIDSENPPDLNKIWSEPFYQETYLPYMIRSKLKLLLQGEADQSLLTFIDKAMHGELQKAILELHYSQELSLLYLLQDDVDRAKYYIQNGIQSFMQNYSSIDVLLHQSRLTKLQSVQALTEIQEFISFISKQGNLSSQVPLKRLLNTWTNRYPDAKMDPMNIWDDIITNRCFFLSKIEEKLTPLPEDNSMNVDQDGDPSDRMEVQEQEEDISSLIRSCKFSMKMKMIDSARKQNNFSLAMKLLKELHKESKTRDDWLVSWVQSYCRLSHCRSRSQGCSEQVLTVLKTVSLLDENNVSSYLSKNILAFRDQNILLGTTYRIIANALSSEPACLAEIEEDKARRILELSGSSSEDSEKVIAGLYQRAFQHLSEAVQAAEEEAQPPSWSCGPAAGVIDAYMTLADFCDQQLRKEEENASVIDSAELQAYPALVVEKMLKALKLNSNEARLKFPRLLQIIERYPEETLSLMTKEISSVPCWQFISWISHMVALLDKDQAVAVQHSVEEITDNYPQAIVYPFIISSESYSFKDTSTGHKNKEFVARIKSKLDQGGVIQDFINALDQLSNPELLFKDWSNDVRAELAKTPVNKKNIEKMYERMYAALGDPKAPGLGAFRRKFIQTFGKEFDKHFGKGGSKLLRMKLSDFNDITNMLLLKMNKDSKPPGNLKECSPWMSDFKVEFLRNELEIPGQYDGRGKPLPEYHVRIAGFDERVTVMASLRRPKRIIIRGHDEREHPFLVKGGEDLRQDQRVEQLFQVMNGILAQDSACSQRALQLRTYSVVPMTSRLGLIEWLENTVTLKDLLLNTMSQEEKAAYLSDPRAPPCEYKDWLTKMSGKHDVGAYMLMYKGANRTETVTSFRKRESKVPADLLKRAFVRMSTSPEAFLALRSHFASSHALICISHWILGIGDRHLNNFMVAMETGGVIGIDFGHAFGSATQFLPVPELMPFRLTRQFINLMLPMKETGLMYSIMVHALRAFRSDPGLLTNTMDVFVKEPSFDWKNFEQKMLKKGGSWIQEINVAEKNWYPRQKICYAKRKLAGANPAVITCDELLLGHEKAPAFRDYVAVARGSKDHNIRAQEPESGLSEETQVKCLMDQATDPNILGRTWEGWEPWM

Biological target: Insulin-like growth factor binding protein-3 (human (endogenous in SAS)) (UniProt P17936)
Assay: co-IP; SAS cell lysates in RIPA buffer (25 mM tris-HCl pH 7.6, 150 mM NaCl, 1% NP-40, 1% sodium deoxycholate, 0.1% SDS) immunoprecipitated with anti-IGFBP-3 antibody and protein A-Sepharose; immunoblot with anti-EGFR and anti-phospho-DNA-PKcs; cells with or without 10 Gy X-ray irradiation (complexes increased after 10 Gy)

phosphorylated DNA-dependent protein kinase catalytic subunit (S2056) (from UniProt P78527 1-4128) (enzyme)
binding: binds

epidermal growth factor receptor (from UniProt P00533 25-1210)
binding: binds
